Among the data in the supplement of paper PMC12819154, “High-throughput peptide-centric local stability assay extends protein–ligand identification to membrane proteins, tissues and bacteria” (Nature Structural & Molecular Biology, 2025) are log2 fold change values, retold here.

Protein sequences, listed by entry. Tags and fused reporters are not part of them. Lines headed by an entry give the natural chain unless they say otherwise; changes in a name come on top.
UniProt P48437: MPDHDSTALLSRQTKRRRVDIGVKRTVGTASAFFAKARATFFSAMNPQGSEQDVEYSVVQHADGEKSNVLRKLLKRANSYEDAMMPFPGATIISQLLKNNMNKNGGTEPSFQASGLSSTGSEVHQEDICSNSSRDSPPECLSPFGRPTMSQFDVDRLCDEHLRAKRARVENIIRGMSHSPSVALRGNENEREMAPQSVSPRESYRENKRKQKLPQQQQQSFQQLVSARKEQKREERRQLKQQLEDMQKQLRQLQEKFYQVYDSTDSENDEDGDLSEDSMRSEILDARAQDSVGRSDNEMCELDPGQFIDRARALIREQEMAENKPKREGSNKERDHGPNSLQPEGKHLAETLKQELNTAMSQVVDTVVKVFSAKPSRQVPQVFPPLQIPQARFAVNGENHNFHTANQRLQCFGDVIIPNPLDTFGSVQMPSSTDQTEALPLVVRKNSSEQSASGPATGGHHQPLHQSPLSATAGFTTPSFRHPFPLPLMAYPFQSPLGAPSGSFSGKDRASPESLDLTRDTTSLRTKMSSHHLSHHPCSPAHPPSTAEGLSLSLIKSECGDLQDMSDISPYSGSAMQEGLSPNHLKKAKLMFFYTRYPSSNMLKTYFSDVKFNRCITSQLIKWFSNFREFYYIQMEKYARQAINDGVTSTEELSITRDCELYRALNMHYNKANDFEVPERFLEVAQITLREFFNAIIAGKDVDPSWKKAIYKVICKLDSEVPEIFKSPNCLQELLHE
UniProt P36423: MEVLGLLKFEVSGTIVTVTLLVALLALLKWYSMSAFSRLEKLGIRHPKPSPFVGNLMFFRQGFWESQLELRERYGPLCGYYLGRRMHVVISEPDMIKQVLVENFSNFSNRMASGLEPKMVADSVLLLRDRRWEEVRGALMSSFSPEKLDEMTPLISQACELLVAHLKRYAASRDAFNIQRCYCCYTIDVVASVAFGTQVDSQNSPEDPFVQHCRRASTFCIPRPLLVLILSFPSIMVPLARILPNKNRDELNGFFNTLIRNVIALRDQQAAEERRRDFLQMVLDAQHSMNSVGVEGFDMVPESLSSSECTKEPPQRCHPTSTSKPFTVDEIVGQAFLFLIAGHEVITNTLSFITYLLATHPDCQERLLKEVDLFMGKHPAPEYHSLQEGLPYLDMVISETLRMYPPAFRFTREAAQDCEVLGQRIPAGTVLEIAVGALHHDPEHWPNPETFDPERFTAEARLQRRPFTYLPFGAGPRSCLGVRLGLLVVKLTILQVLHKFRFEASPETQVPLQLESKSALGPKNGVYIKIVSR
UniProt P53808: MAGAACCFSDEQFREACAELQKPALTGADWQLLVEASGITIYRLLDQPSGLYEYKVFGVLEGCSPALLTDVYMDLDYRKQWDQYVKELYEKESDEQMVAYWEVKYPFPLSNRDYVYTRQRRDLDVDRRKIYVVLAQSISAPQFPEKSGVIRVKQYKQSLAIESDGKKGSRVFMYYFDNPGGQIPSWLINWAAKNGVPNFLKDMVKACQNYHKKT
UniProt P45952: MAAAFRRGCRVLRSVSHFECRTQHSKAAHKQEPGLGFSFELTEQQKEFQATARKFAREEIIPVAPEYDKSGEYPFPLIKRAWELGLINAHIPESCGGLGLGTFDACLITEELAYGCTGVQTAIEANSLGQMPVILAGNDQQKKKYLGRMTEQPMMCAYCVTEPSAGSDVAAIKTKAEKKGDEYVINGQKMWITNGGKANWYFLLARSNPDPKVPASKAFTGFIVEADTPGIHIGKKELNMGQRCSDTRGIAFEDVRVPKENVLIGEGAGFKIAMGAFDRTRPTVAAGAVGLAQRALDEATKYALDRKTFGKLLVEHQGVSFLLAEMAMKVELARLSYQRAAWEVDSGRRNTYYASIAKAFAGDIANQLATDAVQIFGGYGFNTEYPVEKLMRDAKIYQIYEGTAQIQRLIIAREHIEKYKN
UniProt P46412, whole entry: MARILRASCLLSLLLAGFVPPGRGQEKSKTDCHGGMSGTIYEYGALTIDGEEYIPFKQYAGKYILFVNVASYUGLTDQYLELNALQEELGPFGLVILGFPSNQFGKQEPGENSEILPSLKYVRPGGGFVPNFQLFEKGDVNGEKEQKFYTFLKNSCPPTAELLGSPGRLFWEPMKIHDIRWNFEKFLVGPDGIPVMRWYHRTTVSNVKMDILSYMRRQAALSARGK
UniProt P46414, whole entry: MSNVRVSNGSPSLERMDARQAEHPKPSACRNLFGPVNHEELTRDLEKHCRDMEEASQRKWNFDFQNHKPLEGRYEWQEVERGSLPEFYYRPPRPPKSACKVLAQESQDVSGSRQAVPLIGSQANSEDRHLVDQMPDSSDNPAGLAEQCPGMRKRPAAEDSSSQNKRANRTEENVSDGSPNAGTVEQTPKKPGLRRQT
UniProt P46978: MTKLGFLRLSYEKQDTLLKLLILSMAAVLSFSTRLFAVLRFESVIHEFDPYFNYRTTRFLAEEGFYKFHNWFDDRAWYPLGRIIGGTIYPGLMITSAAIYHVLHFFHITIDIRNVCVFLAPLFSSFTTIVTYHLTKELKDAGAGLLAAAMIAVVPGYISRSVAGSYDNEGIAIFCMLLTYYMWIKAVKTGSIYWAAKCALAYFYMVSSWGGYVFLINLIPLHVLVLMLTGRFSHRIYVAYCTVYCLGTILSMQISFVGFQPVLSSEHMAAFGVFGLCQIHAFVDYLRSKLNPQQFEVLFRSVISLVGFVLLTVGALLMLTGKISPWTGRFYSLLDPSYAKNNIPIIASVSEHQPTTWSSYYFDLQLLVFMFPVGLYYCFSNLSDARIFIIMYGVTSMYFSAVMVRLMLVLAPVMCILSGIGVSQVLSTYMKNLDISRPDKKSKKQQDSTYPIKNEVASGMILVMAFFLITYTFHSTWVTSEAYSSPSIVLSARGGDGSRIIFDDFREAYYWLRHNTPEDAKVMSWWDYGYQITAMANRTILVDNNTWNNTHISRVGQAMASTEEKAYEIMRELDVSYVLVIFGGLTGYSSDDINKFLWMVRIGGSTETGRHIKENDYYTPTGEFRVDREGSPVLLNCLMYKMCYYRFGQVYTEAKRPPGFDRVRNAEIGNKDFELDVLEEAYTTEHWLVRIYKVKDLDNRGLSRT
UniProt P49443: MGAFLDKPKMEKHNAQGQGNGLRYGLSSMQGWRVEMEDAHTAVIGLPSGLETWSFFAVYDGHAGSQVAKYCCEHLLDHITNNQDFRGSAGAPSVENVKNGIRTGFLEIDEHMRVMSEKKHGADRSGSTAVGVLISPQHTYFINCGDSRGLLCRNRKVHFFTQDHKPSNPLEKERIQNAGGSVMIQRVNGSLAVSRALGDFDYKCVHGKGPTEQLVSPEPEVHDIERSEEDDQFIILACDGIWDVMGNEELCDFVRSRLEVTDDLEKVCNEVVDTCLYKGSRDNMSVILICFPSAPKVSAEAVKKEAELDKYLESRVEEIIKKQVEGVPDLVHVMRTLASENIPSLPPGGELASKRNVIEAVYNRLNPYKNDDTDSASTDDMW
UniProt P50543: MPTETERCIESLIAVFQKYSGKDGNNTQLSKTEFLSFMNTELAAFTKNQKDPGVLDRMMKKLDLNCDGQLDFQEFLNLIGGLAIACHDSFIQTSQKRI
UniProt P45448, whole entry: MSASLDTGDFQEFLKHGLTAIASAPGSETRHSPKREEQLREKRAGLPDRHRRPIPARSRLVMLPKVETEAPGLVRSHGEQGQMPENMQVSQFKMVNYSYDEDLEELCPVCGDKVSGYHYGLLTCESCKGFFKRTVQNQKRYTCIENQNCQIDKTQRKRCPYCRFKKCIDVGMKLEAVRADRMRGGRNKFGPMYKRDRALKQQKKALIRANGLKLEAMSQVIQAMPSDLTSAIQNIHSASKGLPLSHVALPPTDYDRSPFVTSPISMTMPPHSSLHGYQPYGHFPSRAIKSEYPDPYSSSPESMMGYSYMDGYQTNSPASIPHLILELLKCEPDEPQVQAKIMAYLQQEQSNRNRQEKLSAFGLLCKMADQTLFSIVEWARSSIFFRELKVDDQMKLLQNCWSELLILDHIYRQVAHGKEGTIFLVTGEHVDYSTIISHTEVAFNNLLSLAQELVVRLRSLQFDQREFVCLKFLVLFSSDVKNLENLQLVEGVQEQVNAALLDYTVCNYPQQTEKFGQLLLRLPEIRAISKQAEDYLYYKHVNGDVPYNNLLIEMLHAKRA

Some of the results follow. Most values lie at the level of the controls, where differences are scatter.

Compound in this assay: CN[C@@H]1C[C@H]2O[C@@](C)([C@@H]1OC)n1c3ccccc3c3c4c(c5c6ccccc6n2c5c31)C(=O)NC4 [staurosporine]
As to the kind of experiment: log2 fold change of tryptic peptide abundance, ligand vs vehicle (limited proteolysis) (log2 ratio); higher = more trypsin-susceptible (destabilized). The note with it: ligand concentration: 20 uM; sample: mouse liver crude lysate; replicate design: treated separately.
As for “UniProt P48437 (peptide sequence: VFSAKPSR, peptide start residue: 370)”, the log2 fold change was -0.247.
Under “UniProt P36423 (peptide sequence: NRDELNGFFNTLIR, peptide start residue: 247)” stands 0.252; under “UniProt P53808 (peptide sequence: QSLAIESDGK, peptide start residue: 157)”, -0.436.
Next, “UniProt P45952 (peptide sequence: NTYYASIAK, peptide start residue: 350)”: 0.101.
In the case of “UniProt P46412 (peptide sequence: GDVNGEKEQK, peptide start residue: 138)”, the log2 fold change was -0.641.
Next, “UniProt P41183 (peptide sequence: SDIHYSVPEGPKPAVPSAR, peptide start residue: 272)”: -0.144; “UniProt P46414 (peptide sequence: GSLPEFYYRPPRPPK, peptide start residue: 82)”: -0.104.
Next, “UniProt P46978 (peptide sequence: FGQVYTEAK, peptide start residue: 647)”: -0.12.
Next, “UniProt P49443 (peptide sequence: HNAQGQGNGLR, peptide start residue: 13)”: 0.545.
Turning to “UniProt P50543 (peptide sequence: NQKDPGVLDR, peptide start residue: 48)”, the log2 fold change is 0.0603.
Next, “UniProt P45448 (peptide sequence: HGLTAIASAPGSETR, peptide start residue: 16)”: -0.613.
